Source: PubChem BioAssay AID2685 (National Center for Advancing Translational Sciences (NCATS), 2010)
Among all 320,000 compounds or so, about 2,100 (0.66%) were called active. The shares of active, inactive and inconclusive entries below differ from those in the screen. Calls come from the whole dose curve; as a rule, active = well fitted inhibition curve with a large enough effect in the signal ratio, with a control signal flat (not every such curve was filed as active); inconclusive = small, poorly fitted or top-dose-only effect, or effect the other way, or a change in a side signal; inactive = flat fitted curve, though single readings scatter; the % refers to the signal ratio. A potency beside an inconclusive call is a rough fit, not a confirmed value.

test: qHTS Assay for Lipid Storage Modulators in Drosophila S3 Cells; details: BODIPY lipid droplet fluorescence, 18-24 h, cells fed with added oleic acid; lipid storage change, negative = inhibition: at 46.1 µM (top of the series) unless noted
Procedure, shortened: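 Laser-scanning cytometry quantifies lipid droplet accumulation (500–530 nm total intensity; droplet/cell object ratio) in oleic acid-fed (400 uM added) Drosophila S3 cells treated with a concentration series. 20 uM Triacsin C defined 100% inhibition.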
% is set by controls: 0 for no effect and ±100 for the full control effect; potency is the fitted concentration of half-maximal effect.

Question: Which Potency does the source give for `COc1ccc2cc(/C(C)=N/NC(=O)C3CC3)ccc2c1` here?
Answer: inconclusive: 0.731 µM [rising, full curve, poor fit]

Question: Which Potency does the source give for `COc1ccccc1C(c1nnnn1Cc1ccccc1)N1CCN(c2nc3ccccc3s2)CC1` (stereo not given) here?
Answer: inconclusive: 1.64 µM [rising, full curve]

Question: With `CS(=O)(=O)c1ccc(NC(=O)c2cccc(S(=O)(=O)N3CCN(Cc4ccccc4)CC3)c2)cc1` as the molecule, how does the lipid storage change, negative = inhibition read?
Answer: inconclusive: -59.1%

Question: Which Potency does the source give for `Cc1ccc(S(=O)(=O)N2CCN(Cc3cc(C(C)(C)C)ccc3O)CC2)cc1` here?
Answer: inconclusive: 18.4 µM [falling, single point]

Question: For `Cc1ccc(CNC(=O)C(CCC(N)=O)NC(=O)OCc2ccccc2)cc1` (stereo not given), which lipid storage change, negative = inhibition is on record?
Answer: inconclusive: 6.78%

Question: With `Cc1cc(C(=O)NCCC2=CCCCC2)c(C)o1` as the molecule, how does the lipid storage change, negative = inhibition read?
Answer: inconclusive: -66.7%

Question: For `Cc1ccc(C)c(N2CCN(C(=O)c3cc(S(=O)(=O)N4CCOCC4)ccc3F)CC2)c1`, which lipid storage change, negative = inhibition is on record?
Answer: inconclusive: -55.3%

Question: With `CC(=O)c1cccc(NC(=O)CCc2nnc3ccc(NCc4ccco4)nn23)c1` as the molecule, how does the Potency read?
Answer: inconclusive: 29.1 µM [falling, single point]

Question: For `O=C(CN1CCN(C(=O)c2ccco2)CC1)Nc1c2c(nc3c1CCC3)CCCC2`, which lipid storage change, negative = inhibition is on record?
Answer: inconclusive: -16.1%

Question: Which lipid storage change, negative = inhibition does the source give for `Cc1cccc(NC(=O)CNc2cc(C)ccc2C)c1` here?
Answer: inconclusive: 55.8%

Question: With `CNC(=O)CSc1nnc(C2CC2)n1-c1ccccc1` as the molecule, how does the lipid storage change, negative = inhibition read?
Answer: inconclusive: -2.51%

Question: Which lipid storage change, negative = inhibition does the source give for `Cc1c(C(=O)OCC(=O)NCC2CCCO2)cccc1[N+](=O)[O-]` (stereo not given) here?
Answer: inconclusive: 18.7%

Question: Which lipid storage change, negative = inhibition does the source give for `Cc1ccc(CNC(=O)CSc2ncn[nH]2)cc1` here?
Answer: inconclusive: 112%

Question: Which Potency does the source give for `CC12COC3(C(=O)Nc4cccnc4)CC1CCC32C` (stereo not given) here?
Answer: inconclusive: 23.1 µM [falling, single point]

Question: With `Cc1ccc2c(Cn3cc(C(F)(F)F)cc(Cl)c3=O)cc(=O)oc2c1` as the molecule, how does the Potency read?
Answer: inconclusive: 0.0052 µM [falling, full curve, poor fit]

Question: For `Cc1c(C)c2c(OCC(=O)N[C@@H](Cc3ccccc3)C(=O)O)cc3c(c2oc1=O)CCC(C)(C)O3`, which Potency is on record?
Answer: inconclusive: 4.11 µM [activator, full curve, poor fit]

Question: For `C=CCn1c(SCC(=O)c2[nH]c(C)c(C(=O)OCC)c2C)nc2scc(-c3ccc(OC)cc3)c2c1=O`, which lipid storage change, negative = inhibition is on record?
Answer: inconclusive: 27.6%

Question: For `CC(NC(=O)Cn1nc(-c2ccccc2)c2ccccc2c1=O)c1ccccc1` (stereo not given), which Potency is on record?
Answer: inconclusive: 20.6 µM [cytotoxic, partial curve]

Question: With `COc1ccc(C(C(=O)NC2CCCC2)N(Cc2cccnc2)C(=O)Cc2cccs2)cc1OC` (stereo not given) as the molecule, how does the lipid storage change, negative = inhibition read?
Answer: inactive

Question: For `O=C1NC2(CCCc3ccccc32)C(=O)N1Cc1nnc(-c2ccccc2Br)o1` (stereo not given), which lipid storage change, negative = inhibition is on record?
Answer: inconclusive: -6.59%

Question: For `CN(C)S(=O)(=O)c1ccc(Cl)c(NC(=O)COC(=O)CC(NC(N)=O)c2ccc(Cl)cc2)c1` (stereo not given), which lipid storage change, negative = inhibition is on record?
Answer: inconclusive: 32.9%

Question: Which Potency does the source give for `CC(NC(=O)C(C)N1CCN(Cc2ccccc2)CC1)c1ccccc1` (stereo not given) here?
Answer: inconclusive: 0.651 µM [falling, full curve]

Question: With `O=C(Nc1cccc(Cl)c1)Nc1nnc(CC2=CCCCC2)s1` as the molecule, how does the lipid storage change, negative = inhibition read?
Answer: inconclusive: -16.4%

Question: Which lipid storage change, negative = inhibition does the source give for `CC(C)Cc1cc(C(=O)N2N=C(C(F)F)CC2(O)C(F)F)c2ccccc2n1` (stereo not given) here?
Answer: inconclusive: -18.2%

Question: Which lipid storage change, negative = inhibition does the source give for `CC(/C=N/NC(=O)c1nn(C)c(C)c1Br)=C\c1ccccc1` here?
Answer: inconclusive: 28.5%

Question: Which Potency does the source give for `CCC(CC)N=C1NS(=O)(=O)c2cc([N+](=O)[O-])ccc21` here?
Answer: inconclusive: 29.1 µM [falling, single point]

Question: Which lipid storage change, negative = inhibition does the source give for `O=C(N/N=C/c1coc2ccccc2c1=O)c1cccc([N+](=O)[O-])c1` here?
Answer: inconclusive: -15.2%

Question: With `C=C[C@@H]1c2ccccc2N(S(=O)(=O)c2ccc(C)cc2)[C@H](c2ccccc2C(F)(F)F)C1(C#N)C#N` as the molecule, how does the lipid storage change, negative = inhibition read?
Answer: inconclusive: 7.72%

Question: For `Cc1ccc(Nc2nnc(SCC(=O)Nc3cccc(S(=O)(=O)N4CCCCC4)c3)s2)cc1`, which Potency is on record?
Answer: inconclusive: 23.1 µM [falling, single point]

Question: Which lipid storage change, negative = inhibition does the source give for `COc1ccc(C(=O)Nc2sc3c(c2C(=O)O)CC(C)(C)OC3)cc1` here?
Answer: inconclusive: 14.4%

Question: For `COc1ccc(C(=S)N2CCCC2)cc1Br`, which Potency is on record?
Answer: inconclusive: 29.1 µM [activator, single point]

Question: For `CCOC(=O)N1CCC(NC(=O)C2CCCCN2S(=O)(=O)c2ccc(F)cc2)CC1` (stereo not given), which lipid storage change, negative = inhibition is on record?
Answer: inconclusive: 61.4% [activator]

Question: With `CSCC[C@H](NC(=O)COc1ccc(Cl)cc1)C(=O)N1CCC2(CC1)NCCc1[nH]cnc12` as the molecule, how does the lipid storage change, negative = inhibition read?
Answer: inactive

Question: With `Cc1cccc(NC(=O)c2cc3c(s2)-c2c(C)cccc2OC3)n1` as the molecule, how does the Potency read?
Answer: inconclusive: 1.3 µM [rising, partial curve]

Question: For `CC(C(=O)Nc1ccc(Cl)cc1)N(C)Cc1cccs1` (stereo not given), which Potency is on record?
Answer: inconclusive: 0.092 µM [activator, full curve, poor fit]

Question: Which lipid storage change, negative = inhibition does the source give for `CC(C)CC(NS(=O)(=O)c1ccc2[nH]c(=O)c(=O)[nH]c2c1)C(=O)O` (stereo not given) here?
Answer: inconclusive: 1.82%

Question: Which lipid storage change, negative = inhibition does the source give for `Cc1ccc(NC(=S)Nc2ccc3cn[nH]c3c2)c(C)c1` here?
Answer: inconclusive: 49.2%

Question: With `O=C(N/N=C/c1ccc(OC(=O)c2cccc(F)c2)cc1)c1cccnc1` as the molecule, how does the Potency read?
Answer: inconclusive: 6.51 µM [activator, single point]

Question: Which lipid storage change, negative = inhibition does the source give for `CCOC(=O)C1CCN(C(=O)Nc2ccc(Cl)cc2Cl)CC1` here?
Answer: inconclusive: 11%

Question: With `Cc1ccc(C2(C)NC(=O)N(CC(=O)Nc3ccccc3C(=O)NC3CCCC3)C2=O)cc1` (stereo not given) as the molecule, how does the lipid storage change, negative = inhibition read?
Answer: inconclusive: 11.5%

Question: Which lipid storage change, negative = inhibition does the source give for `COc1cc(CN2CCCCCC2)cc([N+](=O)[O-])c1O` here?
Answer: inconclusive: 65.5%

Question: With `Cc1scc(C(=O)NNC(=S)NCC(C)C)c1C` as the molecule, how does the lipid storage change, negative = inhibition read?
Answer: inconclusive: 4.23%

Question: For `CCN(CC)c1ccc(NC(=O)CN2CCN(c3ccc(F)cc3)CC2)cc1`, which lipid storage change, negative = inhibition is on record?
Answer: inconclusive: -34%

Question: Which Potency does the source give for `COc1ccc(CNC(=O)CN(C(=O)CCC(=O)Nc2nccs2)c2cccc(C)c2)cc1` here?
Answer: inconclusive: 2.06 µM [rising, partial curve, poor fit]

Question: For `O=C(CCl)N(c1ccccc1)C1CCS(=O)(=O)C1` (stereo not given), which Potency is on record?
Answer: inconclusive: 18.4 µM [falling, single point]

Question: Which lipid storage change, negative = inhibition does the source give for `CN(C(=O)COC(=O)c1nc(Cl)ccc1Cl)C1CCS(=O)(=O)C1` (stereo not given) here?
Answer: inconclusive: 13.5%

Question: With `COc1ccc(C2C=C(c3ccc(Br)s3)Nc3ncnn32)cc1OC` (stereo not given) as the molecule, how does the Potency read?
Answer: inconclusive: 0.326 µM [rising, full curve]

Question: For `O=C1NN(c2ccccc2)C(=O)/C1=C\c1ccc2c(c1)OCO2`, which lipid storage change, negative = inhibition is on record?
Answer: inconclusive: 10.8%

Question: With `COc1ccc(S(=O)(=O)NCCOc2ccccc2)cc1F` as the molecule, how does the lipid storage change, negative = inhibition read?
Answer: inconclusive: 25.3%

Question: For `CCOC(=O)C1CCN(C(=O)c2ccc(N3CCCC3=O)cc2)CC1`, which lipid storage change, negative = inhibition is on record?
Answer: inactive

Question: For `O=C(CSc1ccc(Cl)cc1)OCC(=O)N1CCN(c2ccccc2)CC1`, which lipid storage change, negative = inhibition is on record?
Answer: inconclusive: 13.6%

Question: Which lipid storage change, negative = inhibition does the source give for `Cc1nc(C)c(C(=O)C2=C(O)C(=O)N(CCN(C)C)C2c2ccco2)s1` (stereo not given) here?
Answer: inconclusive: -18%

Question: Which lipid storage change, negative = inhibition does the source give for `CC(=O)c1sc2ccccc2c1OC(=O)c1ccco1` here?
Answer: inconclusive: -3.99%

Question: For `COc1ccccc1CN(C)C(=O)C(c1ccccc1)c1ccccc1`, which Potency is on record?
Answer: active: 20.6 µM

Question: With `CC(=O)N(Cc1cccc(Br)c1)c1ccc(N2CCOCC2)c(Cl)c1` as the molecule, how does the lipid storage change, negative = inhibition read?
Answer: inconclusive: -16.1%

Question: For `CN(Cc1ccccc1)C1CCNCC1`, which Potency is on record?
Answer: inconclusive: 0.92 µM [activator, full curve, poor fit]

Question: For `Cc1ccccc1OCCC(=O)N(CC(=O)Nc1ccccc1C(F)(F)F)Cc1ccco1`, which Potency is on record?
Answer: inconclusive: 29.1 µM [cytotoxic, single point]

Question: Which lipid storage change, negative = inhibition does the source give for `O=C(NCC(=O)N1CCN(S(=O)(=O)c2ccccc2)CC1)c1ccc(Br)o1` here?
Answer: inconclusive: 24.1%

Question: For `Clc1cccc(N2CCN(CCNc3nc4ccccc4n4cnnc34)CC2)c1`, which lipid storage change, negative = inhibition is on record?
Answer: inconclusive: 47.6%

Question: For `COCCCNC(=S)N(Cc1ccccc1)Cc1nc2ccccc2c(=O)[nH]1`, which lipid storage change, negative = inhibition is on record?
Answer: inconclusive: -45.2%

Question: For `Clc1ccccc1Cc1noc(CN2CCCCC2CCc2ccccn2)n1` (stereo not given), which lipid storage change, negative = inhibition is on record?
Answer: inconclusive: 10.2%

Question: With `Cc1ccc(S(=O)(=O)NCCC(=O)N2CCN(C/C=C/c3ccccc3)CC2)cc1` as the molecule, how does the lipid storage change, negative = inhibition read?
Answer: inconclusive: -22.1%

Question: Which Potency does the source give for `COC(=O)c1ccc(NS(=O)(=O)c2cccc3cccnc23)cc1` here?
Answer: inconclusive: 6.51 µM [activator, single point]

Question: Which lipid storage change, negative = inhibition does the source give for `COc1ccccc1CN(C)C(C)C(=O)Nc1cccc(C(C)=O)c1` (stereo not given) here?
Answer: inconclusive: -58.2%

Question: With `N#Cc1c(NC(=O)CSc2nc3ccccc3c(=O)n2Cc2ccco2)sc2c1CCCC2` as the molecule, how does the lipid storage change, negative = inhibition read?
Answer: inconclusive: 41.5%

Question: With `Cc1ccc(O)c(NC(=O)CSc2n[nH]c(-c3ccccc3)n2)c1` as the molecule, how does the lipid storage change, negative = inhibition read?
Answer: inconclusive: -49.8%

Question: For `Fc1cccc2sc(Nc3nnc(-c4ccco4)o3)nc12`, which lipid storage change, negative = inhibition is on record?
Answer: inconclusive: 20%

Question: Which lipid storage change, negative = inhibition does the source give for `O=C(C1CCCN(Cc2cccs2)C1)N1CCCCCC1` (stereo not given) here?
Answer: inconclusive: 23%

Question: For `Cc1ccc(C(=O)Cn2c(N3CCOCC3)nc3c2c(=O)n(C)c(=O)n3C)cc1`, which lipid storage change, negative = inhibition is on record?
Answer: inconclusive: 79.2%

Question: Which Potency does the source give for `O=C(Cn1c(=O)[nH]c2sc3c(c2c1=O)CCCC3)NCC1CCCO1` (stereo not given) here?
Answer: inconclusive: 0.231 µM [activator, partial curve, poor fit]

Question: With `CC(NC(=O)c1cc(COc2ccc3ncccc3c2)on1)c1ccc(F)cc1` (stereo not given) as the molecule, how does the Potency read?
Answer: inconclusive: 29.1 µM [falling, single point]

Question: With `Cc1nnc(NC(=O)c2sc3ccccc3c2Cl)s1` as the molecule, how does the lipid storage change, negative = inhibition read?
Answer: inconclusive: 11.3%

Question: For `CCCCC(=O)N/N=C(\C)c1cccc(NC(=O)C2CC2)c1`, which lipid storage change, negative = inhibition is on record?
Answer: inconclusive: 0.109%

Question: For `COCC(C)NC(=O)CSc1ncnc2sc(-c3ccccc3)cc12` (stereo not given), which Potency is on record?
Answer: inconclusive: 0.0164 µM [falling, full curve, poor fit]

Question: Which lipid storage change, negative = inhibition does the source give for `Cn1cnc(S(=O)(=O)N2CCN(c3cccc(Cl)c3)CC2)c1` here?
Answer: inconclusive: 10.2%
